Taken from: PubChem BioAssay AID1508597 (Cure First, 2020)
Purpose: 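Genes whose silencing sensitises or protects ovarian cancer cells against rucaparib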 (primary screen). System: human ovarian carcinoma lines grown from tumours: OCI-P5x (papillary serous) and OCI-C5x (clear cell). Knock-down reagent: siRNA pool against human genes, 1.25 pmol siRNA per well. Time to read-out: 72 h or 96 h, depending on the cell culture. Treatment: rucaparib 20 µM (about IC30) or vehicle, present until read-out. Rucaparib or vehicle: Rucaparib. Cell line: OCI-C5x (clear cell). Detection: 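ATP luminescence measured at 72 or 96 h according to the culture, then normalised and expressed as percent viability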. Scale: viability, normalised: higher = more viable cells remaining. Hit rule: 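Active when normalised viability falls below 80 percent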. Meaning of the calls: active = viability under 80%; inactive = viability 80% or more.
This is a random part of the about 2,100 reagents, in one setting of the screen. 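Calls flag viability under 80% in either arm, not effects specific to rucaparib; the reference for percent is not stated.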 A number with no mark means an inactive call. A reagent listed more than once was tested more than once; the source does not tell the runs apart. Not stated in the record: the 100% reference.

gene symbol	technical replicate	viability, normalised (%)
LIG3 (GeneID 3980)	1	51.4 (active)
LIG3 (GeneID 3980)	2	40.2 (active)
LIG3 (GeneID 3980)	3	35.5 (active)
CARMIL1 (GeneID 55604)	1	53 (active)
CARMIL1 (GeneID 55604)	2	48.4 (active)
CARMIL1 (GeneID 55604)	3	64.7 (active)
NAP1L1 (GeneID 4673)	1	34.8 (active)
NAP1L1 (GeneID 4673)	2	43.7 (active)
NAP1L1 (GeneID 4673)	3	46.7 (active)
ADCK2 (GeneID 90956)	1	88
ADCK2 (GeneID 90956)	2	61.9 (active)
ADCK2 (GeneID 90956)	3	77.4 (active)
MIS18BP1 (GeneID 55320)	1	51.8 (active)
MIS18BP1 (GeneID 55320)	2	51.5 (active)
MIS18BP1 (GeneID 55320)	3	34.7 (active)

Continued; the last 4 above are carried over.
gene symbol	technical replicate	viability, normalised (%)
ADCK2 (GeneID 90956)	3	77.4 (active)
MIS18BP1 (GeneID 55320)	1	51.8 (active)
MIS18BP1 (GeneID 55320)	2	51.5 (active)
MIS18BP1 (GeneID 55320)	3	34.7 (active)
GRK3 (GeneID 157)	1	43.6 (active)
GRK3 (GeneID 157)	1	49 (active)
GRK3 (GeneID 157)	2	72.6 (active)
GRK3 (GeneID 157)	2	46.2 (active)
GRK3 (GeneID 157)	3	48.4 (active)
GRK3 (GeneID 157)	3	65.1 (active)
PALS2 (GeneID 51678)	1	36.4 (active)
PALS2 (GeneID 51678)	2	40.6 (active)
PALS2 (GeneID 51678)	3	44.8 (active)
RIOX2 (GeneID 84864)	1	37 (active)
RIOX2 (GeneID 84864)	2	34.7 (active)
RIOX2 (GeneID 84864)	3	46.2 (active)
DDX43 (GeneID 55510)	1	62.1 (active)
DDX43 (GeneID 55510)	2	53.6 (active)
DDX43 (GeneID 55510)	3	58.8 (active)
CSRNP2 (GeneID 81566)	1	75.7 (active)
CSRNP2 (GeneID 81566)	2	78 (active)
CSRNP2 (GeneID 81566)	3	64.7 (active)
NDC80 (GeneID 10403)	1	56.1 (active)
NDC80 (GeneID 10403)	2	42.6 (active)
NDC80 (GeneID 10403)	3	55.1 (active)
CLDN8 (GeneID 9073)	1	59.1 (active)
CLDN8 (GeneID 9073)	2	44.1 (active)
CLDN8 (GeneID 9073)	3	52.6 (active)
